Measurements reported in PubChem BioAssay AID1508597 (Cure First, 2020)
This is a random part of the about 2,100 reagents, under one of the conditions tested. 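Calls flag viability under 80% in either arm, not effects specific to rucaparib; the reference for percent is not stated.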 A number with no mark means an inactive call. Some reagents were tested in more than one well and are listed for each. Not stated in the record: the 100% reference.

Aim: 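Survival screen with siRNA in ovarian cancer cells derived from patients, with or without rucaparib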 (primary screen)
System: human ovarian carcinoma lines grown from tumours: OCI-P5x (papillary serous) and OCI-C5x (clear cell)
Reagents: siRNA pool against human genes, 1.25 pmol siRNA per well
Timing: 72 h or 96 h, depending on the cell culture
Challenge: rucaparib 20 µM (about IC30) or vehicle, present until read-out
Rucaparib or vehicle: Rucaparib
Cell line: OCI-P5x (serous)
Detection: 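ATP luminescence measured at 72 or 96 h according to the culture, then normalised and expressed as percent viability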
Scale: viability, normalised: higher = more viable cells remaining
Rule for the call: 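Active when normalised viability falls below 80 percent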
Calls: active = viability under 80%; inactive = viability 80% or more

gene	technical replicate	viability, normalised (%)
GTF3C4	1	43.2 (active)
GTF3C4	2	44.9 (active)
GTF3C4	3	40.3 (active)
CASP7	1	93
CASP7	2	98.1
CASP7	3	109
KDM8	1	67.7 (active)
KDM8	2	79.4 (active)
KDM8	3	83.6
WNK3	1	108
WNK3	2	93.6
WNK3	3	87.8
SSB	1	46.8 (active)
SSB	2	58.8 (active)
SSB	3	52.5 (active)
PNCK	1	98.9
PNCK	2	97
PNCK	3	79.9 (active)
ATP7A	1	66.1 (active)
ATP7A	2	71.6 (active)
ATP7A	3	72.9 (active)
EP400	1	62.2 (active)
EP400	2	65.1 (active)
EP400	3	69 (active)
STK24	1	88.8
STK24	2	87.8
STK24	3	66.8 (active)
TAOK2	1	96.8
TAOK2	2	97.3
TAOK2	3	107
PRKCE	1	126
PRKCE	2	133
PRKCE	3	105
PRDM16	1	32.1 (active)
PRDM16	2	42.9 (active)
PRDM16	3	41.9 (active)
PHKB	1	99.4
PHKB	2	93.4
PHKB	3	49.4 (active)
TNRC6A	1	62.8 (active)
TNRC6A	2	66 (active)
TNRC6A	3	75 (active)
RNF40	1	41.7 (active)
RNF40	2	32.7 (active)
RNF40	3	43.4 (active)
WWC2	1	58.8 (active)
WWC2	2	50.5 (active)
WWC2	3	62.1 (active)
MAP3K15	1	90.8
MAP3K15	2	99.6
MAP3K15	3	40.2 (active)
WNT5A	1	76.7 (active)
WNT5A	2	71 (active)
WNT5A	3	42.1 (active)
APC	1	63.7 (active)
APC	1	61.2 (active)
APC	2	53.2 (active)
APC	2	83.2
APC	3	74.7 (active)
APC	3	51 (active)
SOX6	1	45.1 (active)
SOX6	2	39.8 (active)
SOX6	3	31.3 (active)
CLCF1	1	66.3 (active)
CLCF1	2	67 (active)
CLCF1	3	73.7 (active)
SAP130	1	45.8 (active)
SAP130	2	70.8 (active)
SAP130	3	52.8 (active)
LSM1	1	53.3 (active)
LSM1	2	69 (active)
LSM1	3	62 (active)
TRIM16	1	73.6 (active)
TRIM16	2	73.5 (active)
TRIM16	3	68 (active)

Ordered by “viability, normalised (%)” (ascending): some entries from above.
gene	technical replicate	viability, normalised (%)
PRDM16	1	32.1 (active)
PRDM16	3	41.9 (active)
PRDM16	2	42.9 (active)
PHKB	2	93.4
PHKB	1	99.4
PRKCE	3	105
TAOK2	3	107
PRKCE	1	126
PRKCE	2	133
